From patent publication US20190046490A1, “METHODS OF TREATING LACTOSE INTOLERANCE” (Nogra Pharma Limited, priority 2016, published 2019)
At least one compound was matched to its structure with a doubt left.

Legend:
Type in all cases: cell-based, human
LCT mRNA = test: Quantitative PCR of LCT mRNA expression in Caco-2 cells
Protocol: Caco-2 (colonic adenocarcinoma) cells were grown in Dulbecco's Modified Eagle's Medium (DMEM, Invitrogen, Life Technologies, Cergy-Pontoise, France) supplemented with 20% foetal calf serum (FCS, Dutscher, Brumath, France), 1% penicillin-streptomycin (5 ml/l) (Invitrogen, Life technologies) and 1% non-essential amino acids (5 ml/l) (Invitrogen, Life technologies). All cell lines were cultured as confluent monolayers at 37° C. in a controlled, 5% CO2 atmosphere.
For cell stimulations, 1×10^6 cells per well were seeded in 6-well plates. Cells were serum deprived for 16 hours prior to stimulation in order to synchronize the cells. […]
Cells were lysed with lysis buffer (RA1, Macherey-Nagel) containing 1% β-mercaptoethanol. […] The purity of the RNA was evaluated by UV spectroscopy on a Nanodrop system (Nyxor Biotech, Paris, France) from 220 to 350 nm. […]
Expression of genes of interest was quantified by quantitative PCR (qPCR) of corresponding reverse transcribed mRNA. […] Quantification of qPCR signals was performed using ΔCt relative quantification method using GAPDH as a reference gene for human and rat samples and β-Actin for mouse samples. Values were represented in terms of relative quantity of mRNA level variation or fold increase compared to control conditions.

LCT activity = test: Lactase activity in Caco-2 cells (glucose oxidase method); settings: vs DMSO
Protocol: Lactase activity was evaluated by using a glucose oxidase method (Glucose Assay Kit, Sigma). This lactase assay is based on the measurement of the amount of glucose produced following the action of lactase by incubating samples with a lactose buffer solution (0.056 mol/l lactose in a 0.1 mol/l Na-maleate buffer). For Caco-2 cells, lactase activity was determined directly from the cell monolayer. After extensive washing, the cell monolayer was incubated with lactose buffer for one hour at 37° C. The supernatant was recovered, 50 μl were diluted with 100 μl of glucose oxidase reagent and incubated at 37° C. for 1 hour. The reaction was stopped with 100 μl of H2SO4 and read by spectrophotometry at 450 nm. When lactase activity was determined from intestinal sample, tissue samples were first dounce-homogenized in 0.9% NaCl on crushed ice. These homogenates were then diluted in 0.9% NaCl ( 1/500) and 50 μl of dilution were incubated with lactose buffer and used to determine lactase activity. For each experiment, the background attributed to the remaining glucose in the samples was measured by incubating cells or cell extracts in lactose-free buffer.

[1] = test system: sucrase-isomaltase (SIM) mRNA; test: qPCR of sucrase-isomaltase mRNA in Caco-2 cells; settings: 1 μM
[2] = test system: maltase-glucoamylase (MGAM) mRNA; test: qPCR of maltase-glucoamylase mRNA in Caco-2 cells; settings: 1 μM

SMILES | LCT gene transcription (LCT mRNA; vs DMSO) | LCT activity (LCT activity) | LCT mRNA gene expression relative to unstimulated cells, dose-response (LCT mRNA; 0.1 μM, 1 μM, or 10 μM) | SIM expression [1] | MGAM expression [2]
CC(C)OC(=O)C(C)(C)Oc1ccc(C(=O)c2ccc(Cl)cc2)cc1 [Fenofibrate] | unable to induce | unable to induce |  |  | 
CCc1ccc(CCOc2ccc(CC3SC(=O)NC3=O)cc2)nc1 (centres unmarked) [Pioglitazone, pioglitazone] |  |  | increased | significant decrease | significant decrease
